Among all 340,000 compounds or so, about 6,200 (1.8%) were called active. This list was built around the results that the source calls inconclusive (neither active nor inactive); the mix of calls is not that of the screen. The call rests on the fitted dose curve; in most records, active means well fitted activation curve with a large enough effect; inconclusive means small, poorly fitted or top-dose-only effect; inactive means no such curve, though single readings can be large or run the other way. Potencies of inconclusive entries are doubtful fits and often do not repeat.
Assay: A quantitative high throughput screen for small molecules that induce DNA re-replication in SW480 colon adenocarcinoma cells. Further: nearly all actives have a fitted effect of over 55% in size. On re-replication activation: % of control where 0% means no effect.
Conditions: Hoechst DNA content imaging, 48 h; re-replication activation: at 46.1 µM (top of the series) unless noted
Outline: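 Image-based DNA-content assay: after two days of treatment, nuclei were labelled with the DNA dye Hoechst and imaged, and hits were compounds raising the count of nuclei showing high fluorescence intensity.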
Potency means the concentration at half of the fitted maximal effect.

| Compound | Potency | re-replication activation |
| --- | --- | --- |
| COc1ccc(N2CCN(C(C)C(=O)N(C)Cc3ccccc3)CC2)cc1 (centres undefined) | inconclusive: 35.5 µM [activator, single point] |  |
| C=CCNC(=O)/C(C#N)=C/c1ccc(OS(=O)(=O)c2ccc(C)cc2)c(OC)c1 | inconclusive: 23.1 µM [activator, single point] |  |
| CCN(CC)S(=O)(=O)c1ccc2oc(SCC(=O)Nc3cc(C)on3)nc2c1 | inconclusive: 23.1 µM [activator, single point] |  |
| COc1ccc(CNC(=O)CCC(=O)c2ccc(C)cc2)cc1OC |  | inactive: -18.8% |
| COc1ccc(C2N(c3cc(Cl)ccc3OC)C(=O)C3CCCN32)cc1 (centres undefined) |  | inactive: 1.78% |
| CCOc1ccc(CNC(=O)CCn2c(=O)oc3ccccc32)cc1 |  | inactive: 4.21% |
| CSc1ccccc1OCc1cc(C(=O)N(C)CCn2nc(C)cc2C)no1 | inconclusive: 16.4 µM [activator, single point] |  |
| O=S(=O)(CCn1cccc1)CCn1cccc1 | inconclusive: 7.31 µM [activator, single point] |  |
| O=C1CCCN1CCCn1cnc2c([nH]c3ccc(F)cc32)c1=O |  | inactive: 2.1% |
| C=CSc1sc(Cl)c(N2CCOCC2)c1[N+](=O)[O-] | inconclusive: 29.1 µM [activator, single point] |  |
| O=C(CCCn1c(SCC(=O)c2ccccc2)nc2ccccc2c1=O)NCC1CCCO1 (centres undefined) | inconclusive: 5.8 µM [activator, full curve, poor fit] |  |
| c1ccc(-c2cnc(-c3ccccc3)nc2)cc1 | inconclusive: 3.66 µM [activator, partial curve, poor fit] |  |
| COc1ccc(NC(=S)Nc2nc(CC(=O)Nc3ccccc3OC)cs2)cc1 | inconclusive: 18.4 µM [activator, single point] |  |
| COc1ccc(S(=O)(=O)NNC(=O)c2cc3ccccc3o2)cc1 |  | inactive: -5.28% |
| CCOc1ccccc1NC(=O)CCc1nnc2ccc(N3CCC4(CC3)OCCO4)nn12 |  | inactive: 1.4% |
| CC(NC(=S)NC(=O)c1ccccc1Br)c1ccccc1 (centres undefined) |  | inactive: -1.12% |
| CCOC(=O)C1Nc2ccc(C(F)(F)F)cc2C2C=CCC12 (centres undefined) | inconclusive: 29.1 µM [activator, single point] |  |
| O=C(CCc1c[nH]c2ccccc12)NC(Cc1c[nH]c2ccccc12)C(=O)O (centres undefined) | inconclusive: 3.66 µM [activator, full curve, poor fit] |  |
| CCc1nnc(NC(=O)c2cc(Cl)ccn2)s1 | inconclusive: 23.1 µM [activator, single point] |  |
| CCNC(=O)COC(=O)c1cc(C)n(-c2ccccc2)c1C | inconclusive: 5.8 µM [activator, partial curve, poor fit] |  |
| CN1CCN(S(=O)(=O)c2ccc(Cl)c(C(F)(F)F)c2)CC1 | inconclusive: 23.1 µM [activator, partial curve, poor fit] |  |
| COc1ccccc1NC(=O)c1sc2nc(N3CCOCC3)c3c(c2c1N)CCCC3 | inconclusive: 3.66 µM [activator, full curve] |  |
| CC(=O)N1CCC2(CC1)C/C(=N\NC(=S)Nc1ccccc1F)c1cc(O)ccc1O2 | inconclusive: 29.1 µM [activator, single point] |  |

| Compound | Potency | re-replication activation |
| --- | --- | --- |
| NS(=O)(=O)c1ccc(CCNC(=O)CSc2ccc3ccccc3c2)cc1 | inconclusive: 23.1 µM [activator, partial curve, poor fit] |  |
| COc1ccc(C(O)Cn2c(=N)n(CCCN(C)C)c3ccccc32)cc1 (centres undefined) | inconclusive: 29.1 µM [activator, single point] |  |
| O=C(Cc1sc(-c2ccccc2)nc1-c1ccccc1)Nc1ccc(Cl)cc1 | inconclusive: 6.51 µM [activator, single point] |  |
| COc1ccccc1N1CCN(C(=O)c2c(C)noc2C)CC1 |  | inactive: -5.25% |
| COc1ccccc1NC(=O)c1ccccc1NC(=O)c1ccccn1 |  | inactive: -1.77% |
| CCCC(=O)Nc1ccc(N2CCOCC2)cc1 | inconclusive: 0.116 µM [activator, full curve, poor fit] |  |
| O=C(O)CCCC(=O)Nc1ccc(Sc2ccc([N+](=O)[O-])cc2)cc1 | inconclusive: 0.103 µM [activator, full curve, poor fit] |  |
| CC(OC(=O)Cn1cnc2c1c(=O)n(C)c(=O)n2C)C(=O)NCc1ccccc1 (centres undefined) |  | inactive: -9.01% |
| CCOc1cccc(-c2nnc3sc(-c4cc(OC)c(OC)c(OC)c4)nn23)c1 | inconclusive: 6.51 µM [activator, single point] |  |
| O=C(CC(=O)c1ccccc1O)c1ccc(F)cc1 | inconclusive: 29.1 µM [activator, single point] |  |
| O=C(CSc1ncccc1-c1nc2ccccc2[nH]1)NCc1ccco1 | inconclusive: 23.1 µM [activator, single point] |  |
| CCOc1cc(CNn2cn[nH]c2=S)cc(Cl)c1OCc1ccccc1F | inconclusive: 0.116 µM [activator, full curve, poor fit] |  |
| CC12CCC(=O)N1C(C(=O)OCC(=O)Nc1ccc(Cl)c(Cl)c1)CS2 (centres undefined) |  | inactive: 3.57% |
| Cc1ccc(C(=O)NCC(=O)N(C)CC(=O)Nc2c(Cl)cccc2Cl)s1 | inconclusive: 0.731 µM [activator, full curve, poor fit] |  |
| Cc1ccc(C)c(NC(=O)CN(C)C(C)C(=O)N2CC(C)CC(C)C2)c1 (centres undefined) |  | inactive: 4.62% |
| CCC1CCC2(CC1)NC(CO)(CO)CO2 (centres undefined) | inconclusive: 6.51 µM [activator, single point] |  |
| C=CCNC(=S)NNC(=O)c1csc(C)c1C |  | inactive: -8.38% |
| O=C(/C=C/c1ccccc1)Nc1ccc(Br)cn1 | active: 5.8 µM |  |
| Cc1ccc(Oc2c(C(N)=O)cc([N+](=O)[O-])cc2[N+](=O)[O-])cc1 | inconclusive: 23.1 µM [activator, single point] |  |
| CC(=O)Nc1nc2ccccc2n1Cc1ccc(Cl)cc1 | inconclusive: 32.6 µM [activator, partial curve, poor fit] |  |
| COc1ccccc1NCc1cc(=O)oc2c(C)c(O)ccc12 | inconclusive: 29.1 µM [activator, single point] |  |
| COc1ccc(CNCCC(c2ccc(OC(C)C)cc2)c2ccccc2OC)cc1OC (centres undefined) | inconclusive: 10.3 µM [activator, partial curve, poor fit] |  |
| CC(C)(C)OC(=O)CNC(=O)c1nc[nH]c1C(=O)N1CCc2ccccc2C1 |  | inactive: -0.869% |

| Compound | Potency | re-replication activation |
| --- | --- | --- |
| N#CC(c1ccc(Cl)nn1)c1ccc(Cl)cc1Cl (centres undefined) | inconclusive: 20.6 µM [activator, single point] |  |
| COc1ccc(N=Nc2ccc(O)c3ncccc23)cc1 | inconclusive: 2.06 µM [activator, partial curve] |  |
| COC(=O)c1c(NC(=O)CC2Sc3ccc(C(F)(F)F)cc3NC2=O)sc(C)c1C (centres undefined) |  | inconclusive: 27.7% [activator] |
| COc1ccccc1CNC(=O)COC(=O)COc1ccccc1F | inconclusive: 29.1 µM [activator, single point] |  |
| O=C(NC1CCCC1)C(c1ccncc1)N(Cc1ccco1)C(=O)c1ccc(-c2ccccc2)[nH]1 (centres undefined) | inconclusive: 18.4 µM [activator, single point] |  |
| O=C(NCC1CCN(Cc2cccc(Cl)c2)CC1)Nc1ccccc1Cl | inconclusive: 20.6 µM [activator, single point] |  |
| Cc1ccccc1NC(=S)N=Nc1c(O)n(C)c2ccc(S(=O)(=O)N3CCOCC3)cc12 | inconclusive: 3.26 µM [activator, full curve] |  |
| COC(=O)C1=CN(Cc2ccc(C)cc2)C=C(C(=O)OC)C1c1cc(OC)c(OC)c(OC)c1 | inconclusive: 14.6 µM [activator, single point] |  |
| O=C(CCSc1ccccn1)c1ccccc1 | inconclusive: 20.6 µM [activator, single point] |  |
| Cc1cccc(CN2CCN(C(C)C(=O)NC(C)c3ccccc3)CC2)c1 (centres undefined) | inconclusive: 7.31 µM [activator, partial curve, poor fit] |  |
| CC(=O)N1CCCc2cc(S(=O)(=O)Nc3ccccc3C)ccc21 |  | inactive: -2.92% |
| CN(C)c1ccc(Cc2cc3c(O)ccc(O)c3cc(Cc3ccc(N(C)C)cc3)c2=O)cc1 | inconclusive: 29.1 µM [activator, single point] |  |
| COC1OC(COCc2ccccc2)C(N)C(OCc2ccccc2)C1OCc1ccccc1 (centres undefined) |  | inactive: 11.9% |
| CS(=O)(=O)N1CCC(C(=O)c2cccc(Cl)c2)CC1 | inconclusive: 5.8 µM [activator, partial curve, poor fit] |  |
| CCSc1nnc(NC(=O)C2Cc3ccccc3CN2C(=O)c2ccco2)s1 (centres undefined) |  | inactive: -4.05% |
| O=c1[nH]c(/C=C/c2ccccc2Cl)c([N+](=O)[O-])c(=O)[nH]1 | inconclusive: 16.4 µM [activator, partial curve, poor fit] |  |
| CCCn1nc(NC(=O)c2cccs2)c2cc3cc(C)ccc3nc21 | active: 20.6 µM |  |
| Cc1ccc(C(C)CCN2CCC(n3nccc3NC(=O)c3ccccc3)CC2)o1 (centres undefined) |  | inactive: 5.8% |
| CC(Oc1ccc(Br)cc1)C(=O)Nc1cc(Cl)ccc1N1CCN(C)CC1 (centres undefined) | inconclusive: 14.6 µM [activator, single point] |  |
| O=C(O)c1cccc(N2C(=O)c3cc4cccc(Br)c4cc3C2=O)c1 | inconclusive: 0.82 µM [activator, partial curve, poor fit] |  |
| COc1ccc(/C=N/NC(=O)c2cc3c(ccc4ccccc43)o2)cc1OC | inconclusive: 29.1 µM [activator, single point] |  |
| O=C(N/N=C/C=C\c1cccc([N+](=O)[O-])c1)c1cccnc1 |  | inactive: -11.7% |
| NNC(=O)c1sccc1OCc1cccc(C(F)(F)F)c1 | inconclusive: 0.411 µM [activator, partial curve, poor fit] |  |

3 entries picked at random from those above, as already listed:

| Compound | Potency | re-replication activation |
| --- | --- | --- |
| COC1OC(COCc2ccccc2)C(N)C(OCc2ccccc2)C1OCc1ccccc1 (centres undefined) |  | inactive: 11.9% |
| O=C(Cc1sc(-c2ccccc2)nc1-c1ccccc1)Nc1ccc(Cl)cc1 | inconclusive: 6.51 µM [activator, single point] |  |
| CCOc1ccc(CNC(=O)CCn2c(=O)oc3ccccc32)cc1 |  | inactive: 4.21% |

From PubChem BioAssay AID624297 (National Center for Advancing Translational Sciences (NCATS), 2012)
